Experimental data from publication PMC4914336.
These are yes or no findings as the source states them, for the method shown. In cells and extracts the contact can be indirect. Some binding calls cover weakened binding; strength is not graded here.

By UniProt entry, the sequences of proteins in these tests, tags left out. Residues count along the entry.
UniProt P11021, residues 19-654: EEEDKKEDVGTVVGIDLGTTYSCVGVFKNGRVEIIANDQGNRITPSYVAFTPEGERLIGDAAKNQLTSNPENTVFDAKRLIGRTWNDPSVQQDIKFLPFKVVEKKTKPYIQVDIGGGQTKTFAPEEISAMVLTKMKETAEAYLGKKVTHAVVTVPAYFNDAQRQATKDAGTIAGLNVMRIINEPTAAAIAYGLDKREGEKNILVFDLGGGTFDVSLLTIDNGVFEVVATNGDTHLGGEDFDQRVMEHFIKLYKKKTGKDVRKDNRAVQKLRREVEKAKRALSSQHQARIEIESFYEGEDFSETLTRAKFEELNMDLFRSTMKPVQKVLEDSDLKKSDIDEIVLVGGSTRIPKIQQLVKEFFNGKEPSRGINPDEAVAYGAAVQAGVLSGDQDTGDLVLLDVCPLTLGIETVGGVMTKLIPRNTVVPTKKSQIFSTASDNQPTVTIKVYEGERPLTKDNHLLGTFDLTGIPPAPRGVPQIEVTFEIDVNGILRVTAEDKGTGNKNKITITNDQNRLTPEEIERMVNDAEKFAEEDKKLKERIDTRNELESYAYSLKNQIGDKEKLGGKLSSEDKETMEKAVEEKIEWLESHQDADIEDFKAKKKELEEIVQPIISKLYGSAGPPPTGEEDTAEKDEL

Biological target: GRP78 (human (endogenous; the cell line of this experiment is not given)) (UniProt P11021)
Assay: co-IP; immuno-precipitates of endogenous HSP90, GRP78, HSP70 or HSP27 from cells expressing only endogenous levels; cells treated with vehicle, OSU-03012, pazopanib or AR-13; blots of co-precipitating proteins

binding: binds
B1: WASF3 (protein, UniProt Q9UPY6 1-502)
chain: MPLVKRNIEPRHLCRGALPEGITSELECVTNSTLAAIIRQLSSLSKHAEDIFGELFNEANNFYIRANSLQDRIDRLAVKVTQLDSTVEEVSLQDINMKKAFKSSTVQDQQVVSKNSIPNPVADIYNQSDKPPPLNILTPYRDDKKDGLKFYTDPSYFFDLWKEKMLQDTEDKRKEKRRQKEQKRIDGTTREVKKVRKARNRRQEWNMMAYDKELRPDNRLSQSVYHGASSEGSLSPDTRSHASDVTDYSYPATPNHSLHPQPVTPSYAAGDVPPHGPASQAAEHEYRPPSASARHMALNRPQQPPPPPPPQAPEGSQASAPMAPADYGMLPAQIIEYYNPSGPPPPPPPPVIPSAQTAFVSPLQMPMQPPFPASASSTHAAPPHPPSTGLLVTAPPPPGPPPPPPGPPGPGSSLSSSPMHGPPVAEAKRQEPAQPPISDARSDLLAAIRMGIQLKKVQEQREQEAKREPVGNDVATILSRRIAVEYSDSDDDSEFDENDWSD
